Values of other authors in patent publication EP0403242A1, “New L-683,590 microbial transformation product” (Merck & Co., Inc., priority 1989, dated 1990).
For at least one compound, name, drawing or mass did not settle the structure.

Details: reputed; EPO Publication No. 0184162; cited from earlier work

## C=CC[C@@H]1/C=C(\C)C[C@H](C)C[C@H](OC)[C@H]2O[C@@](O)(C(=O)C(=O)N3CCCC[C@H]3C(=O)O[C@H](/C(C)=C/[C@@H]3CC[C@@H](O)[C@H](OC)C3)[C@H](C)[C@@H](O)CC1=O)[C@H](C)C[C@@H]2OC [L-679,934, reference compound]
  effectiveness relative to cyclosporin: 100 times
